Test: relative permittivity at various frequencies (dimensionless); xn = mol fraction of the nth substance listed
Settings: 298.15 K, 101.33 kPa, Liquid, Frequency=0.03 MHz, Parallel plate capacitor

CCCCCCCCCO [nonan-1-ol] + CCCCCCCCCCCC
Settings | relative permittivity
x1 = 0.000477 | 2.00782
x1 = 0.001008 | 2.00852
x1 = 0.001576 | 2.00927
x1 = 0.002254 | 2.01015
x1 = 0.002998 | 2.01112
x1 = 0.003815 | 2.0122
x1 = 0.004639 | 2.01329
x1 = 0.005985 | 2.01506
x1 = 0.007553 | 2.01703
x1 = 0.009513 | 2.01939
x1 = 0.01235 | 2.02255
x1 = 0.01662 | 2.02687
x1 = 0.02124 | 2.03118
x1 = 0.0241 | 2.0337
x1 = 0.02897 | 2.03784
x1 = 0.03592 | 2.04356
x1 = 0.04265 | 2.04902
x1 = 0.04937 | 2.05445
x1 = 0.05678 | 2.06047
x1 = 0.06467 | 2.06696
x1 = 0.07288 | 2.07381
x1 = 0.08103 | 2.08075
x1 = 0.09058 | 2.0891
x1 = 0.1027 | 2.09999

Reference: the NIST ThermoML archive (doi:10.1021/je050116g)
